Results deposited as PubChem BioAssay AID504795 (Drosophila RNAi Screening Center, 2011)

- Test: 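Knock-downs causing abnormal branching, bundling, swelling or growth of cultured neurons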 (primary screen)
- Cell system: primary Drosophila neurons and glia
- Knock-down reagent: long dsRNA against Drosophila genes, 250 ng dsRNA per well
- Duration: one week
- Detection: 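GFP-labelled neurons and glia imaged live by automated microscope one week after 250 ng dsRNA per well; morphology scored by eye as descriptive phenotype terms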
Only reagents picked out of a larger screen are listed. 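Every listed dsRNA shows some phenotype; how reagents were selected for listing is not stated.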

"phenotype seen, replicate 1","phenotype seen, replicate 2",target gene,dsRNA
reduced axon outgrowth,,Bdp1,DRSC03192
too many neurite branches,,CG8539,DRSC21798
abnormal cell clusters,,Crz,DRSC16615
too many neurite branches,,CG7115,DRSC02000
cell fragments present,,Pldn,DRSC10137
sheet-like cell extensions,,CG11638,DRSC18640
sheet-like cell extensions,,CG17359,DRSC10265
sheet-like cell extensions,,CG15576,DRSC18064
abnormal cell clusters,,CG3517,DRSC15492
sheet-like cell extensions,,ms(2)35Ci,DRSC01460
axon bundles split apart,,Pepck1,DRSC07505
axon bundles split apart,,hoip,DRSC03546
axon bundles split apart,,CG4968,DRSC02794
fewer cells,,CG12477,DRSC09886
more neurite growth,,CG4991,DRSC19928
reduced axon outgrowth,,CG10553,DRSC14254
abnormal cell clusters,,CG15080,DRSC06511
too many neurite branches,,Prx1,DRSC10741
sheet-like cell extensions,,stretch (retired record),DRSC14347
sheet-like cell extensions,,mrva,DRSC21842
too many neurite branches,,Proc,DRSC03009
reduced axon outgrowth,,RpL8,DRSC08532
too many neurite branches,,RpL8,DRSC08695
sheet-like cell extensions,,Mpcp2,DRSC11226
cell fragments present,,CG11149,DRSC02130
abnormal cell clusters,,mdu,DRSC19860
axon bundles split apart,,CG4364,DRSC02742
beaded; swollen axons,beaded; swollen axons,CG30457,DRSC06661
axon bundles split apart,,CG13042,DRSC09923
reduced axon outgrowth,,CG13045,DRSC09926
too many neurite branches,,RpS26,DRSC03420
abnormal cell clusters,,Apc,DRSC14114
beaded; swollen axons,,Wnt2,DRSC07574
reduced axon outgrowth,,mRpS5,DRSC21380
axon bundles split apart,,Or45b,DRSC07488
abnormal cell clusters,,CG42493,DRSC05309
abnormal cell clusters,,CG1463,DRSC19603
bundles split and too many branches,,CG9166,DRSC07842
axon bundles split apart,,CG2694,DRSC18470
axon bundles split apart,,CG1090,DRSC21604
cell fragments present,,CG11438,DRSC11660
reduced axon outgrowth,,otk,DRSC07658
too many neurite branches,,RpLP0-like,DRSC06424
sheet-like cell extensions,,tHMG2,DRSC16182
reduced axon outgrowth,,CG32199,DRSC09990
abnormal cell clusters,,Sgs5bis,DRSC16263
abnormal cell clusters,,Cys,DRSC16637
too many neurite branches,,Syp,DRSC15286
axon bundles split apart,axon bundles split apart,fz,DRSC11348
axon bundles split apart,,l(2)03659,DRSC07269
sheet-like cell extensions,,Rpi,DRSC04583
abnormal cell clusters,,SmF,DRSC07397
sheet-like cell extensions,,Caf1-55,DRSC16596
sheet-like cell extensions,,Act5C,DRSC17723
too many neurite branches,,CG7900,DRSC16336
axon bundles split apart,,CG7900,DRSC21343
sheet-like cell extensions,,Cp15,DRSC11118
cell fragments present,,Fntb,DRSC15244
beaded; swollen axons,,CG12507,DRSC19463
fewer cells,,CG13339,DRSC06373
too many neurite branches,,CG14545,DRSC14889
axon bundles split apart,,CG2747,DRSC15450
cell fragments present,,CG6685,DRSC10695
abnormal cell clusters,,Kdm4B,DRSC06862
reduced axon outgrowth,,Tip60,DRSC18661
beaded; swollen axons,,gce,DRSC19974
fewer cells,,CNT1,DRSC06082
axon bundles split apart,,arm,DRSC18738
too many neurite branches,,l(2)37Cd,DRSC02069
too many neurite branches,,Tsp42Eo,DRSC06184
sheet-like cell extensions,,CG14297,DRSC14776
too many neurite branches,,CG32795,DRSC18609
too many neurite branches,,smid,DRSC11398
fewer cells,,Ir52b,DRSC06263
